Assay results taken from the supplement of paper PMC10849652.
This is one part of the list.

By UniProt entry, the sequences of proteins in these tests, tags left out. Where a name states a change or a piece, a line headed by the entry shows the natural chain unless it says otherwise.
UniProt Q9Y297: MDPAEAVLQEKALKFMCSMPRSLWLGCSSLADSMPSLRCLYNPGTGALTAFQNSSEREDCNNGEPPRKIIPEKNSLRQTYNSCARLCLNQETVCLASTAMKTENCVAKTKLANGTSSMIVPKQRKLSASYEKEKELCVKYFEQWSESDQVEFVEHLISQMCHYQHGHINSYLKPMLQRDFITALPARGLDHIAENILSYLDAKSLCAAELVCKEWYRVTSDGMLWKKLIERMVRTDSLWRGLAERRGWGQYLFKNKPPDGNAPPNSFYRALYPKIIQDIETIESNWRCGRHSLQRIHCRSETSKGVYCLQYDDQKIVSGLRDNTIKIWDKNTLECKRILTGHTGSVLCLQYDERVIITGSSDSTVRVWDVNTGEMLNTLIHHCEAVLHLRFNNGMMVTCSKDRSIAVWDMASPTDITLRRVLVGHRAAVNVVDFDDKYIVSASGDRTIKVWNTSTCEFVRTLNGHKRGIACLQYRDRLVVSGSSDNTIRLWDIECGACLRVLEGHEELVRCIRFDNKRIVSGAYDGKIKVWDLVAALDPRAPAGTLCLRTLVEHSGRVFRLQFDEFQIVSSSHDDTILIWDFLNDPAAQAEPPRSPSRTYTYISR
UniProt Q8TCD1: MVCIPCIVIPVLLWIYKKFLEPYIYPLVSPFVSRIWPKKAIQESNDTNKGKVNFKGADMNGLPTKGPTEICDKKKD
UniProt Q9BSU1: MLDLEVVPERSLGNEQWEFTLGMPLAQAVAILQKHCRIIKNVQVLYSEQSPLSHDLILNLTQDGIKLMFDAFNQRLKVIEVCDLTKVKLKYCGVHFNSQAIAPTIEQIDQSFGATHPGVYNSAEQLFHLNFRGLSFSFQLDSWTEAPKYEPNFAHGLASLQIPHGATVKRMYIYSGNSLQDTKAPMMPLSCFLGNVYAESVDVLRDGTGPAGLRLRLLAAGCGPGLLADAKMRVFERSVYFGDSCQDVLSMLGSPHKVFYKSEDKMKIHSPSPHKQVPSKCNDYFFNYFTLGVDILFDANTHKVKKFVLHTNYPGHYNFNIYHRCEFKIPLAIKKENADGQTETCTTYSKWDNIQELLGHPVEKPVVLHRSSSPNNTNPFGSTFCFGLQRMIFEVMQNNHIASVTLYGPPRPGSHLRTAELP
UniProt Q9BV19: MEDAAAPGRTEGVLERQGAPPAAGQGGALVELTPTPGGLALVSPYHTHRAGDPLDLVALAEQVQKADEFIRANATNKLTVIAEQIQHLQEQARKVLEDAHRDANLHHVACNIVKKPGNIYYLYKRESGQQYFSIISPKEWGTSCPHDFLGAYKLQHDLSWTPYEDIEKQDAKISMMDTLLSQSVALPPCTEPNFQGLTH
UniProt Q13901: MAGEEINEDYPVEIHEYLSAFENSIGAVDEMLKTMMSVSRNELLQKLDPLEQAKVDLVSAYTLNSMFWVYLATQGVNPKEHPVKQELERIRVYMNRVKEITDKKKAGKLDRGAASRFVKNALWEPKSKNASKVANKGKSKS
UniProt Q96HA4: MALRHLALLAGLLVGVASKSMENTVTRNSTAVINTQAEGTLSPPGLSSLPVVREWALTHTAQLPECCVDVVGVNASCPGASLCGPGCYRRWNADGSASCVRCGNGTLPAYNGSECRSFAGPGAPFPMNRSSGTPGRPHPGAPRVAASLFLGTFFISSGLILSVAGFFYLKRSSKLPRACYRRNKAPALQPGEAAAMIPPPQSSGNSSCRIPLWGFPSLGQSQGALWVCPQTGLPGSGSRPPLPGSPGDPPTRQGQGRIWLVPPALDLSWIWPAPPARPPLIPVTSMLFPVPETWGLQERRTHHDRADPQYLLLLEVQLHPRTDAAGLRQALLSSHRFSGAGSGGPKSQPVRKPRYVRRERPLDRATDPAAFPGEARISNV
UniProt Q96LW7: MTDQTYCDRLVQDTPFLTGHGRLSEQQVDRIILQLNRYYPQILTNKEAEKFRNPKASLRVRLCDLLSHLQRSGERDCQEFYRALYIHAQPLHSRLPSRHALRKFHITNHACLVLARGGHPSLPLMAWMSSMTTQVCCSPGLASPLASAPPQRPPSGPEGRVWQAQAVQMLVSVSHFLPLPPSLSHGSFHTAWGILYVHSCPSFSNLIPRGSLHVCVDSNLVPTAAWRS
UniProt Q06187: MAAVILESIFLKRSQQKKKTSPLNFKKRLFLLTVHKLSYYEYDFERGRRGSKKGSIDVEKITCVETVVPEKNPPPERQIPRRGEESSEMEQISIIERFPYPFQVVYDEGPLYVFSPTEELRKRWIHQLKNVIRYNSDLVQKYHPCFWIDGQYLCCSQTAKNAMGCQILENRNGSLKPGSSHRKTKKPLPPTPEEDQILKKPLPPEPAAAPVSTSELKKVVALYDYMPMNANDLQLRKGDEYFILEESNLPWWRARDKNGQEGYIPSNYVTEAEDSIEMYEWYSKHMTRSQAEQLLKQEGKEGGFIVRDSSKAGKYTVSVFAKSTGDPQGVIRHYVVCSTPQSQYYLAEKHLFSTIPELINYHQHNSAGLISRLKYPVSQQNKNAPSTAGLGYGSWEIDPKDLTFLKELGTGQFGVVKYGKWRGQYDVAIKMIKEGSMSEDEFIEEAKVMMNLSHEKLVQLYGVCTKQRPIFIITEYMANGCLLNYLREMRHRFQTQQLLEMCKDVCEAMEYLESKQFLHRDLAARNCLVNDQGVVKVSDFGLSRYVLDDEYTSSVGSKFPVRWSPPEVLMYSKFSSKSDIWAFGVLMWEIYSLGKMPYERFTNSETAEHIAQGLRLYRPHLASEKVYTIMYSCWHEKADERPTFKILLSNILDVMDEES
UniProt Q6P5X5: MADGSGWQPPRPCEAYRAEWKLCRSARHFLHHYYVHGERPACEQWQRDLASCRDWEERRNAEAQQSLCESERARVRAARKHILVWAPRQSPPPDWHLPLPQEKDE
UniProt Q86VG3: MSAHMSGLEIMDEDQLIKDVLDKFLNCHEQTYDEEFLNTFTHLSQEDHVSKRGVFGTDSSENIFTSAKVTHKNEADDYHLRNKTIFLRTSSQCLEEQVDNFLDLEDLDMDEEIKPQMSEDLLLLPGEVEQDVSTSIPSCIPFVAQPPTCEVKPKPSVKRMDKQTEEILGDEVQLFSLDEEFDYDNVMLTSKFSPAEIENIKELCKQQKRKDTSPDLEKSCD
UniProt Q9Y2V0: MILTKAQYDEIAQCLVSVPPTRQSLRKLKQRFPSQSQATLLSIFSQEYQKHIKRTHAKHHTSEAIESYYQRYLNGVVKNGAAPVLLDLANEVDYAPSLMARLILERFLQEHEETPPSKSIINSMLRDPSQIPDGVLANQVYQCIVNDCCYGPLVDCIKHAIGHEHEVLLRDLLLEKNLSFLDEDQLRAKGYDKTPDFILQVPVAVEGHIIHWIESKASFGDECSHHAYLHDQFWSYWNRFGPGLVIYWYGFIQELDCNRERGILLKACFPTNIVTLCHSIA
UniProt Q05682: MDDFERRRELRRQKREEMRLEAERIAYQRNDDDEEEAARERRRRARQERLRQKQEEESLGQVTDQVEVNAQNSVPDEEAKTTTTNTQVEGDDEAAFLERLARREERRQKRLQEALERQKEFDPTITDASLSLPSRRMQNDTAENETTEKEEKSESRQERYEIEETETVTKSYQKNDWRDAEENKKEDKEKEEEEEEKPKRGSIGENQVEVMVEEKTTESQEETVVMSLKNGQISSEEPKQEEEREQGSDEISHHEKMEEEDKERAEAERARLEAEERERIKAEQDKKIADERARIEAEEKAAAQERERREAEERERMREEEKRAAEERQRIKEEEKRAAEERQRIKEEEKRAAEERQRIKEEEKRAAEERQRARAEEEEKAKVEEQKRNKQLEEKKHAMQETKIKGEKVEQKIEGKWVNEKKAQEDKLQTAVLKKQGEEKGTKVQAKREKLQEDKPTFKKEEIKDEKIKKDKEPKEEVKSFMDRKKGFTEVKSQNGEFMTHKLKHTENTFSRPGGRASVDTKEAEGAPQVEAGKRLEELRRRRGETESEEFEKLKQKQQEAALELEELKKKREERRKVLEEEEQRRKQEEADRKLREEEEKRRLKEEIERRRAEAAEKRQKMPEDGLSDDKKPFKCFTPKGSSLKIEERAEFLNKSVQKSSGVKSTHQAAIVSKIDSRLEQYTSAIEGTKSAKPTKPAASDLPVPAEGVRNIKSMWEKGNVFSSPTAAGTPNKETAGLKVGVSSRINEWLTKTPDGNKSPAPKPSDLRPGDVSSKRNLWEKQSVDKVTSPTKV
UniProt P0DMB2: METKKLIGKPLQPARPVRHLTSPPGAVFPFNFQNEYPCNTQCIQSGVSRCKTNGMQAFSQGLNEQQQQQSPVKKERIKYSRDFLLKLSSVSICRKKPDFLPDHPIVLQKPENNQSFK
UniProt P07451: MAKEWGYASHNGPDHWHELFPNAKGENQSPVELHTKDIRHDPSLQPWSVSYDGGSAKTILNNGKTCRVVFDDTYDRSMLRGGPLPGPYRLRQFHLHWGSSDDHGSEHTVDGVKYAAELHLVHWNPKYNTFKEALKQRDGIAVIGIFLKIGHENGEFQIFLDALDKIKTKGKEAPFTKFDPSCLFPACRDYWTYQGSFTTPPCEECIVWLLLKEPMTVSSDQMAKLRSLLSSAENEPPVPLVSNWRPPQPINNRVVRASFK
UniProt Q9Y2G2: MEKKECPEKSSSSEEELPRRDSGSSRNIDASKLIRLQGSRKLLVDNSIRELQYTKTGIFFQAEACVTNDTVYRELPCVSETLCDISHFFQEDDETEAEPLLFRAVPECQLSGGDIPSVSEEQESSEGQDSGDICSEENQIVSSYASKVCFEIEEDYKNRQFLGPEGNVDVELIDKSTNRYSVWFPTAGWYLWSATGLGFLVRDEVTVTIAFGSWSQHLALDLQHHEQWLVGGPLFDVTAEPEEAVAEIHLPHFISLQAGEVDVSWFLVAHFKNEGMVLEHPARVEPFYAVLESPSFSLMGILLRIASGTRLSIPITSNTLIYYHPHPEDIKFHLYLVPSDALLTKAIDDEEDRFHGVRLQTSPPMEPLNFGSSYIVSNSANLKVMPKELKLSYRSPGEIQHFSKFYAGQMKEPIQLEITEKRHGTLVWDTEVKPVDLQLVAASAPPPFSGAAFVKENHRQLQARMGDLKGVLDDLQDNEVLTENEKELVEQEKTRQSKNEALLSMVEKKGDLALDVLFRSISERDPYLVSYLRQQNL
UniProt Q5SQH8: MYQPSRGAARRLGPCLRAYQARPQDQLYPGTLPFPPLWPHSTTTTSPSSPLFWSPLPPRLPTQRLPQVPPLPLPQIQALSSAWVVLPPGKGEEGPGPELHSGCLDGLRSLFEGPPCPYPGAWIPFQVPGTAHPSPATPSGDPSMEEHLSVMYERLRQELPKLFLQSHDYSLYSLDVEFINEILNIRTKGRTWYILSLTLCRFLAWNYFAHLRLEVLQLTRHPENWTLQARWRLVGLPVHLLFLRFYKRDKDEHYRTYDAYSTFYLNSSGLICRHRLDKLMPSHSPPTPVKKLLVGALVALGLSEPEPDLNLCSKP
UniProt Q96KE9: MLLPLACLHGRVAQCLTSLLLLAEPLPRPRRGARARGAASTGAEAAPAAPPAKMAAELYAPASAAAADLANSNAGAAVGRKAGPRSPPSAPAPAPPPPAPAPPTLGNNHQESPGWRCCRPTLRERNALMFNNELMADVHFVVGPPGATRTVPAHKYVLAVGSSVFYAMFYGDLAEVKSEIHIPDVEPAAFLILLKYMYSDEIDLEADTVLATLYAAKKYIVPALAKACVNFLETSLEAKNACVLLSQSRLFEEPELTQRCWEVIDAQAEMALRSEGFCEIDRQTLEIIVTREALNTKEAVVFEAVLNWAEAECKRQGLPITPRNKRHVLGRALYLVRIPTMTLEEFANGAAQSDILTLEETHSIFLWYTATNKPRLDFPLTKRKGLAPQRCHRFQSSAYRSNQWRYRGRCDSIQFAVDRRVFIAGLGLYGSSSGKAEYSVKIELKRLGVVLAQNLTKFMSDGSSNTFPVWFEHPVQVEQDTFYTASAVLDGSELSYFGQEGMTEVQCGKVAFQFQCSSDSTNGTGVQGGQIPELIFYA
UniProt P00915: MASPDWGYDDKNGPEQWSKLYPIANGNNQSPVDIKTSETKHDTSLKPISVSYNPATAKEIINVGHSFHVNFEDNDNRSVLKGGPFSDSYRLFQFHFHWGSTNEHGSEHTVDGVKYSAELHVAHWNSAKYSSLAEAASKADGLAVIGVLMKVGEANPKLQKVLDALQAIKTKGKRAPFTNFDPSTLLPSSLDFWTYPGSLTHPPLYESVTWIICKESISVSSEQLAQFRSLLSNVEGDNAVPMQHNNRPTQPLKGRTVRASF
UniProt Q7Z4R8: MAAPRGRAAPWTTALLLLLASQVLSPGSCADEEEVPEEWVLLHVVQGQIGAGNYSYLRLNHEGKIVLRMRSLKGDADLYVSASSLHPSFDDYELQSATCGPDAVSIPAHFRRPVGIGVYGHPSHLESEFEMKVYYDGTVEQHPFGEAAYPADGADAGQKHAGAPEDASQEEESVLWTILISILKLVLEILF

Experiments:
Test in all cases: log2 fold change, soluble protein after heating vs DMSO (PISA); higher = thermal stabilisation; K562 cells, 10 uM, 30 min; active = over 0.2 and 3.5 SD of the protein, either way, in both replicates (recomputed)
[1] = compound: CS(=O)(=O)c1ccc(-c2cnc(N)c(C(=O)Nc3ccccc3)n2)cc1
In short: (§1)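 K562 cells at 2×10^6 cells/mL were treated with 10 μM compound for 30 min. Aliquots were heated for 3 min across 48°C-58°C, pooled, and extracted in PBS with 0.5% NP-40 at 4°C; soluble protein was the supernatant after 21,000xg for 90 min. Soluble protein was quantified by TMTpro 16plex LC-MS/MS with channel sums equalised, and reported as log2 fold change in thermal stability against DMSO controls, with values from duplicates.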

crizotinib = compound: C[C@@H](Oc1cc(-c2cnn(C3CCNCC3)c2)cnc1N)c1c(Cl)ccc(F)c1Cl [crizotinib]
In short: as §1

[2] = compound: C[C@@H]1COCCN1C2=NC(=NC(=C2)C3(CC3)S(=O)(=O)C)C4=C5C=CNC5=CC=C4
In short: as §1

duvelisib = compound: C[C@H](Nc1ncnc2nc[nH]c12)c1cc2cccc(Cl)c2c(=O)n1-c1ccccc1 [duvelisib]
In short: as §1

gandotinib = compound: Cc1cc(Nc2cc(CN3CCOCC3)c3nc(C)c(Cc4ccc(Cl)cc4F)n3n2)n[nH]1 [gandotinib]
In short: as §1

tozasertib = compound: Cc1cc(Nc2cc(N3CCN(C)CC3)nc(Sc3ccc(NC(=O)C4CC4)cc3)n2)n[nH]1 [tozasertib]
In short: as §1

[3] = compound: Cc1cc(SCc2sc(-c3ccc(C(F)(F)F)cc3)nc2C)ccc1OCC(=O)O
In short: as §1

doramapimod = compound: Cc1ccc(-n2nc(C(C)(C)C)cc2NC(=O)Nc2ccc(OCCN3CCOCC3)c3ccccc23)cc1 [doramapimod]
In short: as §1

bafetinib = compound: Cc1ccc(NC(=O)c2ccc(CN3CC[C@H](N(C)C)C3)c(C(F)(F)F)c2)cc1Nc1nccc(-c2cncnc2)n1 [bafetinib]
In short: as §1

[4] = compound: Cc1cccc(CC(=O)N2CCc3c2ccc(-c2cn(C)c4ncnc(N)c24)c3F)n1
In short: as §1

nilotinib = compound: Cc1cn(-c2cc(NC(=O)c3ccc(C)c(Nc4nccc(-c5cccnc5)n4)c3)cc(C(F)(F)F)c2)cn1 [nilotinib]
In short: as §1

[5] = compound: Cc1nc(Nc2n[nH]c3c2CN(C(=O)N[C@H](CN(C)C)c2ccccc2)C3(C)C)c2sccc2n1
In short: as §1

dasatinib = compound: Cc1nc(Nc2ncc(C(=O)Nc3c(C)cccc3Cl)s2)cc(N2CCN(CCO)CC2)n1 [dasatinib]
In short: as §1

[6] = compound: Cc1ncc(-c2ccnc(Nc3ccc(S(C)(=O)=O)cc3)n2)n1C(C)C
In short: as §1

tipifarnib = compound: Cn1cncc1[C@@](N)(c1ccc(Cl)cc1)c1ccc2c(c1)c(-c1cccc(Cl)c1)cc(=O)n2C [tipifarnib]
In short: as §1

mubritinib = compound: FC(F)(F)c1ccc(/C=C/c2nc(COc3ccc(CCCCn4ccnn4)cc3)co2)cc1 [mubritinib]
In short: as §1

[7] = compound: C[C@H](C1=CC=C(C=C1)C(=O)NC2=C3C=CNC3=NC=C2)N
In short: as §1

ispinesib = compound: Cc1ccc(C(=O)N(CCCN)[C@@H](c2nc3cc(Cl)ccc3c(=O)n2Cc2ccccc2)C(C)C)cc1 [ispinesib]
In short: as §1

[8] = compound: Cn1cc(-c2ccc3c(c2)CCN3C(=O)Cc2cccc(C(F)(F)F)c2)c2c(N)ncnc21
In short: as §1

[9] = compound: Cn1cc(-c2ccc3nnc(C(F)(F)c4ccc5ncccc5c4)n3n2)cn1
In short: as §1

Measured: log2 fold change

BTRC (UniProt Q9Y297)
inactive: [1] 0.054 | crizotinib -0.073 | [2] 0.089 | duvelisib 0.024 | gandotinib -0.157 | tozasertib 0.007 | [3] 0.054 | doramapimod 0.009 | bafetinib -0.095 | [4] 0.062 | nilotinib 0 | [5] 0.038 | dasatinib -0.138 | [6] -0.012 | tipifarnib 0.116 | mubritinib 0.158

C18orf32 (UniProt Q8TCD1)
inactive: [1] -0.037 | [2] -0.012 | [7] -0.065 | gandotinib 0 | tozasertib -0.032 | ispinesib 0.183 | bafetinib -0.167 | [4] -0.112 | nilotinib 0.037 | [5] 0.051 | [6] -0.101 | [8] 0.072 | [9] 0.078 | tipifarnib 0.062 | mubritinib 0

C16orf70 (UniProt Q9BSU1)
inactive: [1] 0.266 | crizotinib 0.014 | [2] -0.291 | doramapimod 0.049 | tipifarnib -0.028

C1orf50 (UniProt Q9BV19)
inactive: [1] 0.019 | [2] 0.08 | [7] -0.123 | duvelisib 0.245 | gandotinib 0.192 | tozasertib 0.02 | [3] 0.138 | ispinesib 0.075 | bafetinib -0.086 | [4] -0.067 | nilotinib 0.094 | [5] -0.058 | dasatinib -0.068 | [6] -0.067 | [8] 0.063 | [9] 0.11 | tipifarnib 0.01 | mubritinib -0.01

C1D (UniProt Q13901)
inactive: [1] -0.073 | crizotinib 0.06 | [2] -0.107 | gandotinib 0.01 | doramapimod -0.089 | ispinesib 0.007 | bafetinib -0.026 | [4] -0.013 | nilotinib 0.059 | [5] -0.074 | [6] -0.027 | [9] 0.018 | tipifarnib 0.151 | mubritinib 0.132

C1orf159 isoform 4 (UniProt Q96HA4)
inactive: [1] 0.177 | [7] 0.147 | gandotinib 0.069 | bafetinib 0.064 | [4] -0.101 | [8] 0.121

CARD19 isoform 2 (UniProt Q96LW7)
inactive: crizotinib 0.019 | [2] -0.034 | [7] 0.07 | duvelisib 0.07 | gandotinib 0.129 | tozasertib -0.007 | [3] 0.064 | doramapimod -0.098 | ispinesib -0.107 | bafetinib -0.034 | [4] 0.037 | dasatinib -0.018 | [8] 0.165 | [9] 0.068 | mubritinib -0.084

BTK isoform 2 (UniProt Q06187)
inactive: [1] 0.124 | [2] -0.164 | [7] 0.633 | duvelisib -0.138 | gandotinib 0.212 | tozasertib -0.047 | [3] 0.258 | doramapimod 0.264 | ispinesib -0.346 | [4] -0.074 | nilotinib -0.076 | [5] -0.084 | [6] 0.087 | [8] -0.261 | [9] -0.245 | mubritinib -0.029

C22orf39 (UniProt Q6P5X5)
inactive: [1] 0.075 | crizotinib -0.303 | [2] 0.06 | [7] -0.057 | [3] -0.135 | doramapimod 0.072 | ispinesib -0.207 | bafetinib -0.04 | nilotinib -0.07 | [5] 0.038 | dasatinib -0.232 | [6] -0.12 | [8] -0.036 | [9] 0.031 | tipifarnib -0.071 | mubritinib 0.031

C11orf74 (UniProt Q86VG3)
inactive: [1] 0.031 | crizotinib -0.051 | [2] 0.002 | gandotinib 0.079 | tozasertib 0.022 | doramapimod -0.068 | [4] -0.251 | nilotinib 0.24 | [5] 0.037 | [6] -0.229 | mubritinib 0.033

C15orf41 (UniProt Q9Y2V0)
active: dasatinib -0.357
inactive: [1] 0.057 | crizotinib -0.01 | [2] 0.074 | [7] 0.023 | gandotinib -0.027 | [3] -0.004 | doramapimod 0.08 | ispinesib -0.2 | [4] -0.101 | [8] -0.097 | [9] -0.088 | tipifarnib -0.087

CALD1 (UniProt Q05682)
inactive: [1] -0.284 | crizotinib 0.08 | [2] -0.123 | [7] 0.045 | gandotinib -0.173 | doramapimod -0.096 | ispinesib -0.203 | [4] -0.082 | [8] 0.24 | [9] 0.191 | tipifarnib -0.139

C8orf88 (UniProt P0DMB2)
inactive: crizotinib -0.017 | [2] -0.185 | [7] 0.175 | gandotinib 0.11 | doramapimod -0.136 | ispinesib 0.282 | bafetinib -0.156 | [4] -0.029 | [8] -0.436 | [9] -0.055 | tipifarnib 0.088 | mubritinib 0.23

CA3 (UniProt P07451)
inactive: [1] -0.183 | [2] 0.038 | ispinesib 0.059 | [9] 0.085

CARD8 isoform 5 (UniProt Q9Y2G2)
inactive: [1] -0.112 | crizotinib 0.065 | [2] 0.001 | duvelisib 0.025 | gandotinib -0.045 | tozasertib 0.037 | [3] -0.004 | doramapimod -0.005 | ispinesib 0.034 | bafetinib -0.14 | [4] 0.067 | nilotinib 0.14 | [5] -0.257 | dasatinib -0.112 | [6] -0.018 | [9] 0.011 | tipifarnib 0.197 | mubritinib 0.103

C6orf136 isoform 4 (UniProt Q5SQH8)
inactive: [1] 0.058 | crizotinib 0.064 | duvelisib 0.027 | tozasertib -0.03 | [3] 0.133 | doramapimod 0.149 | ispinesib -0.022 | bafetinib -0.275 | nilotinib -0.333 | [5] 0.018 | dasatinib -0.149 | [6] -0.011 | [9] 0.101 | mubritinib 0.42

BTBD6 (UniProt Q96KE9)
inactive: [1] 0.117 | [2] 0.033 | [7] -0.308 | gandotinib 0.64 | [3] -0.061 | ispinesib 0.209 | bafetinib -0.007 | [4] 0.011 | nilotinib 0.277 | [5] -0.044 | dasatinib 0.008 | [6] -0.098 | [8] 0.239 | [9] -0.003 | tipifarnib -0.121 | mubritinib 0.153

CA1 (UniProt P00915)
inactive: [1] 0.005 | crizotinib 0 | [2] 0.046 | [7] -0.094 | gandotinib -0.036 | [3] 0.019 | doramapimod -0.012 | ispinesib 0.116 | bafetinib -0.017 | [4] -0.055 | nilotinib -0.004 | [5] -0.014 | dasatinib -0.007 | [6] 0.011 | [8] 0.029 | [9] -0.008 | tipifarnib -0.011 | mubritinib 0.067

Taken from the listing (2 entries):
C1orf159 isoform 4 (UniProt Q96HA4)
inactive: [1] 0.177 | [7] 0.147 | gandotinib 0.069 | bafetinib 0.064 | [4] -0.101 | [8] 0.121

CARD19 isoform 2 (UniProt Q96LW7)
inactive: crizotinib 0.019 | [2] -0.034 | [7] 0.07 | duvelisib 0.07 | gandotinib 0.129 | tozasertib -0.007 | [3] 0.064 | doramapimod -0.098 | ispinesib -0.107 | bafetinib -0.034 | [4] 0.037 | dasatinib -0.018 | [8] 0.165 | [9] 0.068 | mubritinib -0.084

Next part.

C6orf120 (UniProt Q7Z4R8)
inactive: [1] 0.069 | crizotinib -0.04 | [3] 0.113 | doramapimod 0.134 | ispinesib -0.07 | bafetinib -0.145 | nilotinib -0.045 | [5] 0.044 | dasatinib 0.029 | [6] -0.048 | [9] -0.032 | tipifarnib 0.026
